According to PubChem BioAssay (EPA / NIEHS):
Values joined by “and” are separate entries in the source; they are usually repeats but may differ in a detail not shown here. Equal entries are not always repeated. The inconclusive results got no clear call from the source; some entries with a clear call stand among them for comparison. A potency beside an inconclusive call is a rough fit, not a confirmed value. Some structures have more than one record in an assay (separate samples or runs), and their calls can disagree. Active and inactive are the calls of the source. How the source made its calls: active means hit-call score of the fitted dose curve at least 0.9, where 1 is the maximum; inconclusive means response in the unintended direction; inactive means score below 0.9.

Protein sequences, listed by entry. Tags and fused reporters are not part of them.
UniProt P04637, whole entry, looked up: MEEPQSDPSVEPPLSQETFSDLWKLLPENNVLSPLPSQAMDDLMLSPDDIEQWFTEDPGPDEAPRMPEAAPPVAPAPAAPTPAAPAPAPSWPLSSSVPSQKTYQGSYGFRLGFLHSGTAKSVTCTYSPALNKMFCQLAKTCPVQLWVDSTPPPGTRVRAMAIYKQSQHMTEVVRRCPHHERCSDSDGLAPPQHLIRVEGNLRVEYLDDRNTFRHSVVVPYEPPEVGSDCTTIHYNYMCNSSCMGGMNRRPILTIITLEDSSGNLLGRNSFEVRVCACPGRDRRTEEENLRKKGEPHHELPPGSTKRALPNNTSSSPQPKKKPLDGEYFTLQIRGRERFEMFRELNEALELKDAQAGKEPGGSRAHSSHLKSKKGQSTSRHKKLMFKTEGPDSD

Biological target: Cellular tumor antigen p53 (Homo sapiens) (UniProt P04637)
Experiment: TOX21_p53_BLA_p3_ratio: Tox21 HCT-116 p53 Agonism Beta-lactamase Assay, Ratio, Phase 3 (AID 2283596)
Text: TOX21_p53_BLA_p3 is a cell-based, single-readout assay that uses HCT116, a human intestinal cell line, […] in a 1536-well plate.TOX21_p53_BLA_p3_ratio is an assay readout measuring reporter gene via receptor activity and designed using inducible reporter (beta lactamase induction) detected with GAL4 b-lactamase reporter gene. The signal is derived from the ratio of cleaved (ch2) to uncleaved (ch1) reporter gene substrate used as the measure of target activity.Data from the assay component TOX21_p53_BLA_p3_ratio was analyzed into 1 assay endpoint. This assay endpoint, TOX21_p53_BLA_p3_ratio, was analyzed in the positive analysis fitting direction relative to DMSO as the negative control and baseline of activity. Using a type of inducible reporter, gain-of-signal activity can be used to understand changes in the reporter gene as they relate to the gene TP53. Furthermore, this assay endpoint can be referred to as a primary readout, because this assay has produced multiple assay endpoints where this ratio serves a reporter gene function to understand target activity. To generalize the intended target to other relatable targets, this assay endpoint is annotated to the DNA binding intended target family, where the subfamily is tumor suppressor.
Thawing Method: Place 14 mL of pre-warmed thaw medium into a 15 mL of conical tub. Remove the vial of cells to be thawed from liquid nitrogen and thaw rapidly by placing at 37C in a water bath with gentle agitation for 1-2 minutes. Decontaminate the vial by wiping with 70% ethanol before opening in a biological safety cabinet. Transfer the vial contents drop-wise into 14 mL of thaw medium in a sterile 15-mL conical tub. Centrifuge cells at 900 rpm for 4 minutes and resuspend in thaw medium. Transfer contents to the T75 tissue culture flask containing Thaw Medium and place flask in a humidified 37C/5% CO2 incubator. Switch to growth medium at first passage.Propagation Method: Aspirate medium, rinse once in DPBS, add 0.25% Trypsin/EDTA and swirl to coat the cell evenly. Add an equal volume of Growth Medium to inactivate Trypsin after 2-3 minutes incubation at 37C. Centrifuge cells at 900 rpm for 4 minutes and resuspend in growth medium. Cell should be passage or fed at least twice a week.Assay Protocol: Harvest cells from culture in growth medium and resuspend in assay medium. 2.2 Dispense 4000 cells/5 uL/well into 1536-well black/clear bottom plates using a Multidrop dispenser. After the cells were incubated at 37C for 5 hours, 23 nL of compounds dissolved in DMSO were transferred to the assay plate by a PinTool resulting in a 217-fold dilution. Incubate the plates for 16 hours at 37C, 5% CO2. Add 1 uL of 6X LiveBLAzer FRET B/G (CCF4-AM) Substrate Mixture to each well using a BioRAPTR dispenser and incubate the plates at room temperature for 2 hours. Measure fluorescence intensity at 460 and 530 nm emission and 405 nm excitation by an Envision detector. Data is expressed as the ratio of 460nm/530nm emissions. Add 4 uL of Cell-titer Glo to each well using BioRAPTR and incubate the plates at room temperature for 2 hours. Measure fluorescence intensity by a VewLux plate reader.

| Compound | outcome | AC50 |
| --- | --- | --- |
| Cc1ccc2c(C)cccc2c1 | inactive |  |
| CCOP(=S)(OCC)Oc1cc(-c2ccccc2)on1 |  | inconclusive: 46.1 µM |
| CCC1C(C)=NN=C(c2ccc(OC)c(OC)c2)c2cc(OC)c(OC)cc21 (stereo unspecified) |  | inconclusive: 23 µM |
| C=C1C[C@@H]2[C@H](CC[C@]3(C)C(=O)CC[C@@H]23)[C@@]2(C)C=CC(=O)C=C12 | inactive |  |
| COC1CC(=C(c2cccs2)c2cccs2)C[N+](C)(C)C1 (stereo unspecified) |  | inconclusive: 23 µM |
| CNc1cnn(-c2cccc(C(F)(F)F)c2)c(=O)c1Cl | inactive | inconclusive: 46.1 µM |
| CC(Oc1ccc(Oc2ncc(C(F)(F)F)cc2Cl)cc1)C(=O)O (stereo unspecified) |  | inconclusive: 17.8 µM |
| CON(C)C(=O)Nc1ccc(Br)cc1 |  | inconclusive: 46.1 µM |
| O=C(NCc1cccnc1)Nc1ccc([N+](=O)[O-])cc1 |  | inconclusive: 76.3 µM |
| CCCOC(=O)Cc1ccc(OCC(=O)N(CC)CC)c(OC)c1 |  | inconclusive: 23 µM |
| CC[n+]1c(-c2ccccc2)c2cc(N)ccc2c2ccc(N)cc21 |  | active: 3.51 µM and active: 14.1 µM and active: 6.74 µM |
| CCCOC(=O)c1ccccc1C(=O)OCCC |  | inconclusive: 46.1 µM |
| CNC(=O)NC(O)C(Cl)(Cl)Cl (stereo unspecified) |  | inconclusive: 23 µM |
| COC(=O)c1ccc(CBr)cc1 |  | inconclusive: 46.6 µM |
| N#Cc1sc2c(=O)c3ccccc3c(=O)c=2sc1C#N |  | active: 52.2 µM |
| NC(=O)CN1CCCC1=O | inactive | inconclusive: 46.1 µM |
| O=C(CBr)OCc1ccccc1 | inactive |  |
| O=C1Nc2ccc(Cl)cc2C(c2ccccc2Cl)=NC1O (stereo unspecified) |  | inconclusive: 23 µM |

| Compound | outcome | AC50 |
| --- | --- | --- |
| Nc1nc(=S)[nH][nH]1 |  | inconclusive: 46.1 µM |
| COC(C)(C)CCCC(C)C/C=C/C(C)=C/C(=O)OC(C)C (stereo unspecified) | inactive |  |
| CCCSc1cc(OC)c(CCN)cc1OC |  | active: 48 µM |
| C[C@H]1CCC[C@H](O)CCCCCc2cc(O)cc(O)c2C(=O)O1 | inactive | active: 74.2 µM |
| O=C(CCl)c1ccccc1 |  | active: 64.3 µM |
| C[Si](Cn1cncn1)(c1ccc(F)cc1)c1ccc(F)cc1 | inactive | inconclusive: 46.1 µM |
| O=P(OCC(Br)CBr)(OCC(Br)CBr)OCC(Br)CBr (stereo unspecified) |  | active: 75.3 µM and active: 86.9 µM |
| CCOC(=O)N(C)C(=O)CSP(=S)(OCC)OCC |  | inconclusive: 46.1 µM |
| N#Cc1c[nH]cc1-c1cccc2c1OC(F)(F)O2 |  | active: 8.51 µM |
| N#CSCc1ccccc1 |  | active: 30.7 µM |
| NNC(=O)c1cccnc1 |  | inconclusive: 46.2 µM |
| CCCCCCCCCC(=O)O[C@H]1CC[C@H]2[C@@H]3CCC4=CC(=O)CC[C@]4(C)[C@H]3CC[C@]12C |  | inconclusive: 23 µM |
| Cc1cnc(C2=NC(C)(C(C)C)C(=O)N2)c(C(=O)O)c1 (stereo unspecified) |  | inconclusive: 46.1 µM |
| CC(=O)OCC1=C(C(=O)O)N2C(=O)[C@@H](N)[C@H]2SC1 |  | inconclusive: 10.3 µM |
| C=CC[C@]1(O)CC[C@H]2[C@@H]3CCC4=CCCC[C@@H]4[C@H]3CC[C@@]21C |  | inconclusive: 23 µM |
| C[C@]12CC[C@H]3[C@@H](CCC4=C(O)C(=O)CC[C@@H]43)[C@@H]1CC[C@@H]2OC(=O)CCC1CCCC1 | inactive |  |
| CSc1ccc(C(=O)C(C)(C)N2CCOCC2)cc1 |  | inconclusive: 46.1 µM |
| S=C=S | inactive | inconclusive: 45.6 µM |

Two compounds picked at random from the list so far, as already listed:

| Compound | outcome | AC50 |
| --- | --- | --- |
| NNC(=O)c1cccnc1 |  | inconclusive: 46.2 µM |
| C[Si](Cn1cncn1)(c1ccc(F)cc1)c1ccc(F)cc1 | inactive | inconclusive: 46.1 µM |
